From patent US5449673A, “10,11-dihydro-10-(3-substituted-1-oxo-2-propyl, propenyl or propynyl)dibenz[b,f][1,4] oxazepine prostaglandin antagonists” (G. D. Searle & Co., priority 1994, dated 1995)
At least one compound was matched to its structure with a doubt left. Some entries repeat one wording, which the source may state once for all of them.

Test system: mice
Assay: PBQ Writhing Assay (analgesia in mice)
Assay type: in vivo, mouse (Charles River male albino mice)
Details: more potent compounds tested
Excerpt: The Writhing Assay is one of the most widely-used experimental procedures for measuring the analgesic activity of different narcotic and nonnarcotic analgesic agents, and involves the continuous, chemically-induced pain of visceral origin to an animal, such as a mouse or rat. [Gyires et al., Arch. int. Pharmacodyn, 267, 131-140 (1984); C. Vander Wende et al., Fed. Proc., 15, 494 (1956); Koster et al., Fed. Proc., 18, 412 (1959); and Witken et al., J. Pharmacol. exp. Ther., 133, 400-408 (1961).] Chemicals which may be used to induce this pain include phenylbenzoquinone (PBQ) and acetic acid. As a result of the chemical irritation to the animal, a characteristic stretching and writhing of the animal (dorsiflexion of the animal's back, extension of its hindlimbs and the strong contraction of its abdominal musculature) will generally occur. […] Drugs which reduce the number of writhes of the animal appear to restore the normal nociceptive threshold of the animal.
Charles River male albino mice, weighing 20 to 30 grams were used in this assay. […]
Five minutes later, each mouse was individually placed into a glass beaker for observation, and the number of writhes occurring during the following tenminute period was counted.
A test compound was considered to have produced analgesia in a mouse if, in accordance with the conditions set forth above, and under the test criteria employed for this assay, after the administration of 30 mg per kilogram of body weight of a compound of the present invention to the mouse, the number of writhes elicited by a mouse injected with PBQ was equal to, or less than, one-half the median number of writhes recorded for the saline-treated control group of mice that day, as described by Taber in "Predictive Value of Analgesic Assays in Mice and Rats," Advances in Biochemical Psychopharmacology, 8, 191 (1974). […]
The results for the particular compounds of the present invention analyzed in this assay, and discussed in the examples identified below which correspond thereto, are presented in Table I hereinbelow under the heading "PBQ WRITHING ASSAY". […]

SMILES	rank order of potency in the Writhing Assay
CCCCC(C)(C/C=C\C(=O)N1Cc2ccccc2Oc2ccc(Cl)cc21)O[Si](C)(C)C (stereo not drawn) [Example 4, 8-chloro-10,11-dihydro-10-[5-methyl-1-oxo-5-[(trimethylsilyl)oxy]-2Z-nonenyl]-dibenz[b,f][1,4]oxazepine]	Example 17 > Example 9 > Example 4 > Example 8 > Example 5 > Example 12
CCCCC(C)(C/C=C/C(=O)N1Cc2ccccc2Oc2ccc(Cl)cc21)O[Si](C)(C)C (stereo not drawn) [Example 5, 8-chloro-10,11-dihydro-10-[5-methyl-1-oxo-5-[(trimethylsilyl)oxy]-2E-nonenyl]-dibenz[b,f][1,4]oxazepine]	Example 17 > Example 9 > Example 4 > Example 8 > Example 5 > Example 12
CCCCCC(C)(/C=C/C(=O)N1Cc2ccccc2Oc2ccc(Cl)cc21)O[Si](C)(C)C (stereo not drawn) [Example 8, 8-chloro-10,11-dihydro-10-[4-methyl-1-oxo-4-[(trimethylsilyl)oxy]-2E-nonenyl]dibenz-[b,f][1,4]oxazepine]	Example 17 > Example 9 > Example 4 > Example 8 > Example 5 > Example 12
